Laboratory results published in US12692310B2, “ASIC1 channel antagonist antibody” (ShanghaiTech University, priority 2019, dated 2026).
These are yes or no findings as the source states them, for the method shown. Some results given as binding are weak or reduced against the parent protein; the word gives no strength.

What was measured:
[1] = biological target: T1, ectodomain of hASIC1a (hASIC1a-ECD) (human) (UniProt P78348); experiment: gel filtration (Superdex 200)
T1 sequence (looked up): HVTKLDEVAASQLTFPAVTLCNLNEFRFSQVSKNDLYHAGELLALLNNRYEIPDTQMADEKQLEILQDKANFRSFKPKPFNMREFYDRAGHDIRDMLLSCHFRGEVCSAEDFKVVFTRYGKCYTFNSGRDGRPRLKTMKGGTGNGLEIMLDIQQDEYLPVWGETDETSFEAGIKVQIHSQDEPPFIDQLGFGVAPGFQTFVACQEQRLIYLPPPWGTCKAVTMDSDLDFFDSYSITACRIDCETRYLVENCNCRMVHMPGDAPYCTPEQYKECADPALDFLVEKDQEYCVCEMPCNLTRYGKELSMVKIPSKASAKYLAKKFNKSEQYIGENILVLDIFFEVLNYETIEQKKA

[2] = biological target: T1, ectodomain of hASIC1a (hASIC1a-ECD) (human); experiment: negative-stain EM, 2D class averages
[3] = biological target: T1, ectodomain of hASIC1a (hASIC1a-ECD) (human); experiment: gel filtration of ASC06-Fab and hASIC1a-ECD mixed 3:1
[4] = biological target: T1, ectodomain of hASIC1a (hASIC1a-ECD) (human); experiment: gel filtration (Superdex 200, 24 mL) of the mixture of ASC06-Fab and hASIC1a-ECD, compared with each alone

Measured: binding

B1: ASC06-Fab (Fab, V domains shown)
VH: QVQLQQSGGGLVQPGGSLRLSCAASGFTFSSYAMSWVRQAPGKGLEWVSAISGSGGSTYYADSVKGRFTISRDNSKNTLYLQMNSLRAEDTAVYYCAKDSFYGYSKGDWGQGTLVTVSS
VL: QSALTQPASVSGSPGQSITISCTGTSSDVGAYNYVSWYQQQPGKAPKLMIYGVSNRPSGVSNRFSGSKSGNAASLTISGLQAEDEADYYCSSYTSSSTYVFGTGTKLTVLG
binds: all assays above
